Laboratory results: patent US20240116961A1, “TRIPHENYPHOSPHINE MODIFIED SERTRALINE DERIVATIVE AND METHODS THEREOF” (XIAMEN UNIVERSITY, priority 2022, published 2024)
For at least one compound, name, drawing or mass did not settle the structure.

Tests used:
[1] = system: human non-small cell lung cancer cells (A549) transplanted tumor; test: Mouse transplantation tumor model of lung cancer (A549); type: in vivo, BALB/c (nu/nu) nude mice; conditions: 1 mg/kg intraperitoneal injection once a day for 15 days
[2] = system: A549 cisplatin-resistant cells; test: Cell apoptosis by Annexin V-FITC/PI double staining, flow cytometry; type: cell-based, human; conditions: by concentration gradients; FIG. 2B
[3] = system: A549 cells; test: Cell cycle by PI single staining, flow cytometry; type: cell-based, human; conditions: by concentration gradients; FIG. 2C
[4] = system: tumor cells; test: Mitophagy by transmission electron microscopy; type: cell-based; conditions: concentration 0.3 μM, work time 3 hours; FIG. 3
Description: • (1) Apparatus: Transmission electron microscope Hitachi HT-7800 • (2) Reagent: glutaraldehyde • (3) Experimental method: cells are inoculated in a 6 cm diameter Petri dish and incubated with the compounds for 3 hours. The culture solution is poured out; a 2 mL glutaraldehyde working solution (2.5% glutaraldehyde and phosphate buffer (PB) system) restored to room temperature is added and put into a refrigerator at 4° C. after fixation for 15 minutes at room temperature; the fixation solution is diluted 2-3 times with PB after fixation for 2-3 hours, the PB used for washing is poured off, PB containing 5% Bovine albumin (BSA) is added with an amount of 1 mL, and the adherent fixed cells are scraped off using a cell scraper, collected into 1.5 mL centrifuge tubes, and centrifuged for 4-5 minutes at 2,500 revolutions per minute (rpm) at 4° C. to prepare samples. The images are analyzed by a transmission electron microscope.

[5] = system: A549 cells; test: Mitochondrial membrane potential damage by JC-1, flow cytometry; type: cell-based, human; conditions: incubated 12 hours, FIG. 2D
[6] = system: A549 (human non-small cell lung cancer cell line); test: Western blot of apoptosis and mitochondria-related protein expression in A549 cells; type: cell-based; conditions: 0.15, 0.3, 0.6, 1.2, 2.5, 5 μM, by concentration gradients, FIG. 1
[7] = system: A549 cells; test: Cell apoptosis by Annexin V-FITC/PI double staining, flow cytometry; type: cell-based, human; conditions: by concentration gradients; FIG. 2A

CN(C(=O)CCCCCCCCCC[P+](c1ccccc1)(c1ccccc1)c1ccccc1)[C@H]1CC[C@@H](c2ccc(Cl)c(Cl)c2)c2ccccc21 [Mito-10-Ser, (11-(((1S,4S)-4-(3,4-dichlorophenyl)-1,2,3,4-tetrahydronaphthalen-1-yl)(methyl)amino)-11-oxoundecyl)triphenylphosphine]
inhibition of transplanted tumor (sizes, volumes, weight) ([1]; FIG. 4): can well inhibit | apoptosis and autophagy of the tumor tissue cells ([1]; FIG. 5): induce apoptosis and autophagy of the tumor tissue cells | apoptosis of A549 cisplatin-resistant cells [2]: equally effective on drug-resistant cells | cycle arrest of tumor cells [3]: can induce cycle arrest | autophagosome formation / mitophagy [4]: induce autophagosome formation to phagocytize mitochondria | mitochondrial membrane potential of the tumor cells (A549) [5]: decreased mitochondrial membrane potential | expression of COXII [6]: decreased expression of Hsp60 and COXII | expression of Cleaved PARP [6]: increased expression of Cleaved PARP | expression of Hsp60 [6]: decreased expression of Hsp60 | apoptosis of A549 cells [7]: can induce apoptosis
